Assay results reported in paper PMC10951710.
These are yes or no findings as the source states them, for the method shown. In cells and extracts the contact can be indirect. These calls come from enrichment with a bait or labelling near it, and not all partners need be listed. Tags and fused reporters may be left off the sequences shown.

Sequences of proteins named here, by UniProt entry; tags and fusion partners are left off. A change or cut given only in a name is not applied to a line headed by its entry.
UniProt F4IMY0: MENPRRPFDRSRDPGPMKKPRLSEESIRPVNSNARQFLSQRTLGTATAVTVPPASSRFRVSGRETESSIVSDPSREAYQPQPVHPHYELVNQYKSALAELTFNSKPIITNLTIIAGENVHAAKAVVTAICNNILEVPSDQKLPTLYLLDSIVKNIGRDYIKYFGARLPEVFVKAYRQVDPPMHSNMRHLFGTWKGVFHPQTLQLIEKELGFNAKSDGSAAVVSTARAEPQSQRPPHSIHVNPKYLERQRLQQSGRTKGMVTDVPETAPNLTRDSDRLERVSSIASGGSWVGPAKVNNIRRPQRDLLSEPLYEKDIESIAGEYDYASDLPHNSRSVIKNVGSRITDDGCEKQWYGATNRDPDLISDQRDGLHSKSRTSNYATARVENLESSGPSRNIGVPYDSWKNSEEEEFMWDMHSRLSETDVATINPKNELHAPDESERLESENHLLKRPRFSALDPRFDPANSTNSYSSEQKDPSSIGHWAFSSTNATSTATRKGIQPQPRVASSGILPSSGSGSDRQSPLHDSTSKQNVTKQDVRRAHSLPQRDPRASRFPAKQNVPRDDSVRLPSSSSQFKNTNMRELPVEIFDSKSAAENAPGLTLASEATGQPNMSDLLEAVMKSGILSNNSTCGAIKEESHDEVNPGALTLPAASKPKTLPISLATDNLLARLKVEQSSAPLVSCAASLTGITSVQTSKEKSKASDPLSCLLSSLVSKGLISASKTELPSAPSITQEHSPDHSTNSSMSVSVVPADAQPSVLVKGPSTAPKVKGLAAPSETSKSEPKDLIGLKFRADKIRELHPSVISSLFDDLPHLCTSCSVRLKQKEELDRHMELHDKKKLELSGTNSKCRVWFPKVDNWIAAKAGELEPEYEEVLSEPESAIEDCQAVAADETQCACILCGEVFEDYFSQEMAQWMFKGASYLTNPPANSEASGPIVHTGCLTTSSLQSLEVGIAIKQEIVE

T1: MKK1-TurboID-Hisx8 fusion protein (mitogen-activated protein kinase kinase 1 fused to TurboID) (Arabidopsis thaliana) (UniProt Q94A06)
T1 sequence: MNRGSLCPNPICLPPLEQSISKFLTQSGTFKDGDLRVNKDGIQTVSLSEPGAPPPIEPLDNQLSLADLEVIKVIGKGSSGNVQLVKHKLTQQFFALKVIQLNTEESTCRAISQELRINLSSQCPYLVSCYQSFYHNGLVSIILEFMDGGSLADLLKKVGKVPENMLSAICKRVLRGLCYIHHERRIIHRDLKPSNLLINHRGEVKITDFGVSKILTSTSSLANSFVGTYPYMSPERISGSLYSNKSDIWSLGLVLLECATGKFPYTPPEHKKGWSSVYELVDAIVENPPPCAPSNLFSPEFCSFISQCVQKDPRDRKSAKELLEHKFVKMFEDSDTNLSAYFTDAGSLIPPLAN

T2: MKK2-TurboID-Hisx8 fusion protein (mitogen-activated protein kinase kinase 2 fused to TurboID) (Arabidopsis thaliana) (UniProt Q9S7U9)
T2 sequence: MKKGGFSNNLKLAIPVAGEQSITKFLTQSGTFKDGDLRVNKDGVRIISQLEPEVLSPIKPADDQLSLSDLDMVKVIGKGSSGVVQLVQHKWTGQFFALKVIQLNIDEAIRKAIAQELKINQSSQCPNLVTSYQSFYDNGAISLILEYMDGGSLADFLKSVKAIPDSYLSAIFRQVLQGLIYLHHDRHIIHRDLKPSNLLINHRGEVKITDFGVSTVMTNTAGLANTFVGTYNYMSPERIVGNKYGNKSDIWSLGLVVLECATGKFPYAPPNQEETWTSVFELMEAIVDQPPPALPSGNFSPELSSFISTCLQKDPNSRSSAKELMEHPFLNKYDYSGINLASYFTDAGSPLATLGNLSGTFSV


How the values were obtained:
[1] = target: T1, MKK1-TurboID-Hisx8 fusion protein (mitogen-activated protein kinase kinase 1 fused to TurboID) (Arabidopsis thaliana); assay: proximity labelling; in planta TurboID labelling in MKK1-ID or MKK2-ID transgenic Arabidopsis against TurboID-only (ID) plants; 150 uM biotin and 5 uM estradiol in the medium, 5 min wind of 4 m/sec; denaturing extraction, streptavidin enrichment of biotinylproteins and biotinylpeptides, LC-MS/MS, iBAQ quantitation; hits at log2-ratio >= 1.58 and BH-FDR <= 0.05
[2] = target: T2, MKK2-TurboID-Hisx8 fusion protein (mitogen-activated protein kinase kinase 2 fused to TurboID) (Arabidopsis thaliana); assay: as above

Molecule	binding [1]	binding [2]
Involved in plant trans-Golgi network (TGN) transport (EPS2)	binds	binds
Sorting nexin 2B (SNX2B) (protein, UniProt B9DFS6 1-572) MMGSENDEESHLHSSKEEMEKLFLREDGDPLTKSNVNGDKSNSNYRSAMSTLFDSRHPSIVVTPADSDPLFAPPSYYSESRSPRSKPNGGDRVSSYLEPPSYADVIFSPFDDISEINGSEDGHSQSSDSLSRSPSSLSSDYIKITVSNPQKEQEATNSMIPGGSTYITYQITTRTNLSDYGGSEFSVRRRFRDIVTLADRLAESYRGFCIPPRPDKSIVESQVMQKQEFVEQRRVALEKYLRRLVAHPVIRNSDELKVFLQAQGKLPLATSTDVASRMLDGAVKLPKQLFGEGGGASSVEVVQPGRGGRDFLRMFKELRQSVSNDWGGSKPPVVEEDKEFLEKKEKMYDLEQQIINASQQAESLVKAQQDMGETMGELGLAFIKLTKFENEEAVFNSQRARANDMKNLATSAVKASRFYRELNSQTVKHLDTLHDYLGLMMAVQGAFADRSSALLTVQTLLSELSSLEARAEKLEVASSKVFGGDKSRIKKIEELKETIKVTEDSKNVAIREYEQIKENNWSEVERLDRERRADFLNMMKGFVANQVGYAEKIANVWTKVAEETRQYDRESS	binds	–

Next, values leading:

binding [1]	binding [2]	Molecule
binds	binds	Transcriptional activator (DUF662)
binds	binds	Pre-mRNA cleavage complex 2 Pcf11-like protein (from UniProt F4IMY0)
